Laboratory results published in the supplement of paper PMC9744312.
Counter-ions that a name gives are not always drawn. The list shows a part of the results. Single values of this set are uncertain.

Each compound was assayed on Peyronie's disease tunica albuginea primary fibroblasts (assay: inhibition of TGF-beta1-induced alpha-SMA expression (myofibroblast transformation), relative to TGF-beta1-only and untreated controls; higher = stronger inhibition of myofibroblast transformation). Conditions: 10 µM; TGF-beta1 10 ng/mL; 72 h.
CC(C)CN(C[C@@H](O)[C@H](Cc1ccccc1)NC(=O)O[C@H]1CCOC1)S(=O)(=O)c1ccc(N)cc1 [Amprenavir] was tested, and the “inhibition of TGF-beta1-induced alpha-SMA expression” value (“inhibition” below) was 4.91%.
With CNCCC=C1c2ccccc2CCc2ccccc21 [Nortriptyline hydrochloride] the “inhibition” value was 56%.
With C[C@H]1[C@H](NC(=O)/C(=N\OC(C)(C)C(=O)O)c2csc(N)n2)C(=O)N1S(=O)(=O)O [Aztreonam] the “inhibition” value was -1.65%.
CCc1c2c(nc3ccc(OC(=O)N4CCC(N5CCCCC5)CC4)cc13)-c1cc3c(c(=O)n1C2)COC(=O)[C@]3(O)CC [Irinotecan HCl Trihydrate] was tested, and the “inhibition” value was 61.9%.
In the case of Cc1ccc(/C(=C\CN2CCCC2)c2ccccn2)cc1 [Triprolidine Hydrochloride], the “inhibition” value is reported as 15.1%.
For CC(C)(O/N=C(\C(=O)N[C@@H]1C(=O)N2C(C(=O)[O-])=C(C[n+]3ccccc3)CS[C@H]12)c1csc(N)n1)C(=O)O [Ceftazidime], the “inhibition” value was 2.74%.
CC(C)(O/N=C(\C(=O)N[C@@H]1C(=O)N2C(C(=O)[O-])=C(C[n+]3ccccc3)CS[C@H]12)c1csc(N)n1)C(=O)O [Ceftazidime Pentahydrate] was tested, and the “inhibition” value was 15.5%.
CC(C)=CCC/C(C)=C/CC/C(C)=C/CCC(=O)OC/C=C(\C)CCC=C(C)C [Gefarnate] was tested, and the “inhibition” value was 12.2%.
With O=C(N/N=C/c1ccc([N+](=O)[O-])o1)c1ccc(O)cc1 [Nifuroxazide] the “inhibition” value was -23.7%.
In the case of CCOc1cc2ncc(C#N)c(Nc3ccc(OCc4ccccn4)c(Cl)c3)c2cc1NC(=O)/C=C/CN(C)C [Neratinib (HKI-272)], the “inhibition” value is reported as 27%.
For Cc1cn([C@@H]2C[C@@H](O)[C@H](CO)O2)c(=O)[nH]c1=O [Telbivudine], the “inhibition” value was -0.476%.
In the case of NC(=O)c1ncn([C@@H]2O[C@H](CO)[C@@H](O)[C@H]2O)c1O [Mizoribine], the “inhibition” value is reported as 15.3%.
With CC(=O)Nc1c(I)c(NC(C)=O)c(I)c(C(=O)O)c1I [Diatrizoate sodium] the “inhibition” value was 60.2%.
In the case of CCc1cc(C(N)=S)ccn1 [Ethionamide], the “inhibition” value is reported as -21.1%.
In the case of N[C@H](Cc1ccccc1)C(=O)O [D-Phenylalanine], the “inhibition” value is reported as 15.3%.
With O=c1c(-c2ccc(O)cc2)coc2cc(O)cc(O)c12 [Genistein] the “inhibition” value was 2.56%.
In the case of COC(=O)[C@H]1[C@H]2C[C@@H]3c4[nH]c5cc(OC)ccc5c4CCN3C[C@H]2C[C@@H](OC(=O)c2cc(OC)c(OC)c(OC)c2)[C@@H]1OC [Reserpine], the “inhibition” value is reported as 8.7%.
In the case of CNC(=C[N+](=O)[O-])NCCSCc1ccc(CN(C)C)o1 [Ranitidine Hydrochloride], the “inhibition” value is reported as -18.4%.
CNC(=C[N+](=O)[O-])NCCSCc1ccc(CN(C)C)o1 [Ranitidine] was tested, and the “inhibition” value was 36%.
CC(C)C[C@H](NC(=O)CNC(=O)c1cc(Cl)ccc1Cl)B(O)O [Ixazomib (MLN2238)] was tested, and the “inhibition” value was > 100%.
With CC(C)(CO)[C@@H](O)C(=O)NCCCO [D panthenol] the “inhibition” value was 0.846%.
N#C[C@@H]1CCCN1C(=O)CNC12CC3CC(CC(O)(C3)C1)C2 [Vildagliptin (LAF-237)] was tested, and the “inhibition” value was 11.2%.
With CCC(=O)NS(=O)(=O)c1ccc(-c2c(-c3ccccc3)noc2C)cc1 [Parecoxib Sodium] the “inhibition” value was 42.7%.
CCC(=O)NS(=O)(=O)c1ccc(-c2c(-c3ccccc3)noc2C)cc1 [Parecoxib] was tested, and the “inhibition” value was 17.3%.
With N[C@@H]1CN(c2c(F)cc3c(=O)c(C(=O)O)cn([C@@H]4C[C@@H]4F)c3c2Cl)CC12CC2 [Sitafloxacin Hydrate] the “inhibition” value was 19.5%.
In the case of CNC[C@H](O)c1cccc(O)c1 [Phenylephrine HCl], the “inhibition” value is reported as 36.3%.
For CO[C@H]1C[C@@H]2CC[C@@H](C)[C@@](O)(O2)C(=O)C(=O)N2CCCC[C@H]2C(=O)O[C@H]([C@H](C)C[C@@H]2CC[C@@H](O)[C@H](OC)C2)CC(=O)[C@H](C)/C=C(\C)[C@@H](O)[C@@H](OC)C(=O)[C@H](C)C[C@H](C)/C=C/C=C/C=C/1C [Rapamycin (Sirolimus)], the “inhibition” value was -49.4%.
NS(=O)(=O)c1ccc(C(=O)O)cc1 [Carzenide] was tested, and the “inhibition” value was -22.3%.
In the case of Cc1nc(C)c(Cl)c(O)c1Cl [Clopidol], the “inhibition” value is reported as 26.1%.
O=C(O)P(=O)(O)O [Foscarnet Sodium] was tested, and the “inhibition” value was 25.4%.
With N=C(N)NCCC[C@@H](NC(=O)[C@@H]1CCCN1C(=O)[C@@H]1CSSCCC(=O)N[C@@H](Cc2ccc(O)cc2)C(=O)N[C@@H](Cc2ccccc2)C(=O)N[C@@H](CCC(N)=O)C(=O)N[C@@H](CC(N)=O)C(=O)N1)C(=O)NCC(N)=O [Desmopressin Acetate] the “inhibition” value was -1.26%.
With CC(C)NCC(O)c1ccc(NS(C)(=O)=O)cc1 (configuration not stated) [Sotalol HCl] the “inhibition” value was 15.2%.
For C#C[C@]1(O)CC[C@H]2[C@@H]3CCc4cc(OC)ccc4[C@H]3CC[C@@]21C [Mestranol], the “inhibition” value was -3.75%.
For C1=N/C2=N/c3ccc(OCCN4CCCC4)c(c3)COC/C=C/COCc3cccc(c3)C(=C1)N2 [Pacritinib (SB1518)], the “inhibition” value was > 100%.
For COc1ccc2cccc(CCNC(C)=O)c2c1 [Agomelatine], the “inhibition” value was -9.25%.
For Cc1[nH]c(/C=C2\C(=O)Nc3ccccc32)c(C)c1CCC(=O)O [Orantinib (TSU-68, SU6668)], the “inhibition” value was -28.2%.
For CC(=O)N1CCN(c2ccc(OCC3COC(Cn4ccnc4)(c4ccc(Cl)cc4Cl)O3)cc2)CC1 (configuration not stated) [Ketoconazole], the “inhibition” value was 14.2%.
With CN(CCOc1ccc(NS(C)(=O)=O)cc1)CCc1ccc(NS(C)(=O)=O)cc1 [Dofetilide] the “inhibition” value was 1.92%.
In the case of CC(C)NC[C@H](O)COc1ccc(CCOCC2CC2)cc1 [Levobetaxolol HCl], the “inhibition” value is reported as 20.3%.
In the case of CCCCCCCC(=O)N[C@H](CN1CCCC1)[C@H](O)c1ccc2c(c1)OCCO2 [Eliglustat], the “inhibition” value is reported as 28.3%.
COC(=O)C1=C(C)NC(C)=C(C(=O)OC)C1c1ccccc1[N+](=O)[O-] [Nifedipine] was tested, and the “inhibition” value was 3.51%.
For Clc1ccccc1CN1CCc2sccc2C1 [Ticlopidine HCl], the “inhibition” value was 4.77%.
For Nc1ccc(O)c(C(=O)O)c1 [Mesalamine], the “inhibition” value was -9.66%.
Cc1cc(NC(=O)C2=C(O)c3ccccc3S(=O)(=O)N2C)no1 [Isoxicam] was tested, and the “inhibition” value was 30.6%.
With CN(C)CCCN1c2ccccc2CCc2ccc(Cl)cc21 [Clomipramine HCl] the “inhibition” value was 47.2%.
With C#C[C@]1(OC(C)=O)CC[C@H]2[C@@H]3CCC4=C[C@@H](OC(C)=O)CC[C@@H]4[C@H]3CC[C@@]21C [Ethynodiol diacetate] the “inhibition” value was 31.7%.
In the case of Nc1ccc(S(=O)(=O)Nc2ncccn2)cc1 [Sulfadiazine], the “inhibition” value is reported as 16%.
In the case of Nc1ccc(S(=O)(=O)Nc2ncccn2)cc1 [Sodium sulfadiazine], the “inhibition” value is reported as 32.2%.
For C=CCc1cc(OC)c(O)c(C(=O)NCCO)c1 [Alibendol], the “inhibition” value was 11.8%.
In the case of CO[C@@]1(NC(=O)C(C(=O)O)c2ccc(O)cc2)C(=O)N2C(C(=O)O)=C(CSc3nnnn3C)CO[C@@H]21 (some centres not stated) [Latamoxef sodium], the “inhibition” value is reported as 56.9%.
C#C[C@]1(O)CC[C@H]2[C@@H]3CCC4=CC(=O)CC[C@@H]4[C@H]3CC[C@@]21C [Norethindrone] was tested, and the “inhibition” value was 23.1%.
In the case of CC(=O)OC/C=C(C)/C=C/C=C(C)/C=C/C1=C(C)CCCC1(C)C [Vitamin A Acetate], the “inhibition” value is reported as 23.9%.
In the case of NS(=O)(=O)c1cc2c(cc1Cl)N=C(CSCc1ccccc1)NS2(=O)=O [Benzthiazide], the “inhibition” value is reported as 14.5%.
With CCCCCCCCCCCCCCCCCC(=O)O [Stearic acid] the “inhibition” value was -9.56%.
CC(=O)Oc1cc(C(F)(F)F)ccc1C(=O)O [Triflusal] was tested, and the “inhibition” value was 22.8%.
For CNC(=O)c1ccc2cc([C@@]3(O)CCn4cncc43)ccc2c1 [TAK-700 (Orteronel)], the “inhibition” value was 57.4%.
C[C@]12C=CC(=O)C=C1CC[C@@H]1[C@@H]2[C@@H](O)C[C@@]2(C)[C@H]1CC[C@]2(O)C(=O)CO [Prednisolone] was tested, and the “inhibition” value was 34.7%.
In the case of O=c1[nH]cc(F)c(=O)[nH]1 [Fluorouracil (5-Fluoracil, 5-FU)], the “inhibition” value is reported as -9.86%.
With CS(=O)(=O)c1ccc([C@@H](O)[C@@H](CO)NC(=O)C(Cl)Cl)cc1 [Thiamphenicol] the “inhibition” value was -12.1%.
In the case of CO/N=C(\C(=O)N[C@@H]1C(=O)N2C(C(=O)[O-])=C(C[n+]3ccn4ncccc43)CS[C@H]12)c1nsc(N)n1 [Cefozopran hydrochloride], the “inhibition” value is reported as 49.9%.
In the case of Cc1cncc(CN2CCC(=C3c4ccc(Cl)cc4CCc4cccnc43)CC2)c1 [Rupatadine Fumarate], the “inhibition” value is reported as 40.2%.
In the case of C[C@@H](c1ncncc1F)[C@](O)(Cn1cncn1)c1ccc(F)cc1F [Voriconazole], the “inhibition” value is reported as 26.5%.
O=C(Nc1cc(Cl)cc(Cl)c1O)c1c(O)c(Cl)cc(Cl)c1Cl [Oxyclozanide] was tested, and the “inhibition” value was 19.1%.
With O=C(O)Cc1ccccc1Nc1c(Cl)cccc1Cl [Diclofenac Potassium] the “inhibition” value was 24.1%.
In the case of O=C(O)Cc1ccccc1Nc1c(Cl)cccc1Cl [Diclofenac Sodium], the “inhibition” value is reported as 21%.
O=C(O)Cc1ccccc1Nc1c(Cl)cccc1Cl [Diclofenac Diethylamine] was tested, and the “inhibition” value was 28.7%.
For C[C@@H]1CC(=O)NN=C1c1ccc(NN=C(C#N)C#N)cc1 [Levosimendan], the “inhibition” value was -0.651%.
With Oc1c(Br)cc(Br)c2cccnc12 [Broxyquinoline] the “inhibition” value was -16.6%.
In the case of CC(C)C[C@H](NC(=O)[C@H](Cc1ccccc1)NC(=O)c1cnccn1)B(O)O [Bortezomib (PS-341)], the “inhibition” value is reported as > 100%.
In the case of COc1ccc(CC(C)NCC(O)c2ccc(O)c(NC=O)c2)cc1 (configuration not stated) [Formoterol Hemifumarate], the “inhibition” value is reported as 41.9%.
For CS(=O)(=O)c1ccc(C(=O)Nc2ccc(Cl)c(-c3ccccn3)c2)c(Cl)c1 [Vismodegib (GDC-0449)], the “inhibition” value was 7.75%.
CNC[C@H](O)[C@@H](O)[C@H](O)[C@H](O)CO.CNC[C@H](O)[C@@H](O)[C@H](O)[C@H](O)CO.O=C([O-])CN(CCN(CC(=O)[O-])CC(=O)O)CCN(CC(=O)[O-])CC(=O)O.[Gd+3] [Gadopentetate Dimeglumine] was tested, and the “inhibition” value was 88.6%.
